{"source": "the supplement of paper PMC5949888", "note": "Most values lie at the floor of the assay. Slopes are relative: functional sequences can read slightly below zero."}
{"test_system": "Saccharomyces cerevisiae PS128 hsf1 delta, HSF1(1-493) fusion", "assay": "growth estimate (transactivation domain function in HSF1 fusion, heat-shock survival) (a.u. (slope of normalised read count over time)); higher = stronger growth at 37°C, i.e. more transactivation activity", "conditions": "library: random library"}
{"substance": "RTCTVDMSVRDIGGLLRGKK", "growth estimate": "< -0.25"}
{"substance": "RTDWLVWRICVKNPSQVVEG", "growth estimate": "< -0.25"}
{"substance": "RTEAS", "growth estimate": "< -0.25"}
{"substance": "RTEQLGRI", "growth estimate": "< -0.25"}
{"substance": "RTER", "growth estimate": "< -0.25"}
{"substance": "RTFAALFPRGSVLVPCKYLA", "growth estimate": "< -0.25"}
{"substance": "RTGLSSAVKSRPIRCVLFRP", "growth estimate": "< -0.25"}
{"substance": "RTGMWMLSH", "growth estimate": "< -0.25"}
{"substance": "RTGRVSRVRSRLSSSDGRQR", "growth estimate": "< -0.25"}
{"substance": "RTGTPKQPVSISFPSRFSPR", "growth estimate": "< -0.25"}
{"substance": "RTKLVRDNMYSLPAHGTS", "growth estimate": "< -0.25"}
{"substance": "RTKSVALLWRGS", "growth estimate": "< -0.25"}
{"substance": "RTL", "growth estimate": "< -0.25"}
{"substance": "RTLALHRRASPTAHATYEAT", "growth estimate": "< -0.25"}
{"substance": "RTLALKQSKYVSQSWYNSAS", "growth estimate": "< -0.25"}
{"substance": "RTLCRCNALASCYGAARATD", "growth estimate": "< -0.25"}
{"substance": "RTLESRWKSEYGFQEAQCRK", "growth estimate": "< -0.25"}
{"substance": "RTMIGETLASWT", "growth estimate": "< -0.25"}
{"substance": "RTMQAR", "growth estimate": "< -0.25"}
{"substance": "RTMSLL", "growth estimate": "< -0.25"}
{"substance": "RTNEITEIC", "growth estimate": "< -0.25"}
{"substance": "RTPPGLHALTRVTDHTTH", "growth estimate": "< -0.25"}
{"substance": "RTPRDMIG", "growth estimate": "< -0.25"}
{"substance": "RTPSSVSAALR", "growth estimate": "< -0.25"}
{"substance": "RTPWGVYI", "growth estimate": "< -0.25"}
{"substance": "RTQFHASYEVLVGVVKDHGQ", "growth estimate": "< -0.25"}
{"substance": "RTQSEYSSLVY", "growth estimate": "< -0.25"}
{"substance": "RTQSFTRKHRVQLALYGLGN", "growth estimate": "< -0.25"}
{"substance": "RTRAVVITC", "growth estimate": "< -0.25"}
{"substance": "RTREADGRVRTVKGILVKRR", "growth estimate": "< -0.25"}
{"substance": "RTRFQNAEQGLIAWTTAGQD", "growth estimate": "< -0.25"}
{"substance": "RTRGRRYPV", "growth estimate": "< -0.25"}
{"substance": "RTRMSLRILIYTQCTSSFGS", "growth estimate": "< -0.25"}
{"substance": "RTRSIPSTFITEHLK", "growth estimate": "< -0.25"}
{"substance": "RTRSLAESDND", "growth estimate": "< -0.25"}
{"substance": "RTRTQAVLA", "growth estimate": "< -0.25"}
{"substance": "RTRVKSYAVILTL", "growth estimate": "< -0.25"}
{"substance": "RTSCF", "growth estimate": "< -0.25"}
{"substance": "RTSGDLRVPK", "growth estimate": "< -0.25"}
{"substance": "RTSGIQPTYTNHYKECVTGP", "growth estimate": "< -0.25"}
{"substance": "RTSPYHLDSCNFAYSRRSVE", "growth estimate": "< -0.25"}
{"substance": "RTSQTHSL", "growth estimate": "< -0.25"}
{"substance": "RTSSRAL", "growth estimate": "< -0.25"}
{"substance": "RTTLFF", "growth estimate": "< -0.25"}
{"substance": "RTTVNRRAWTRFRKSTYLGR", "growth estimate": "< -0.25"}
{"substance": "RTVAHWAYGMGSSVLGWQER", "growth estimate": "< -0.25"}
{"substance": "RTVEPVELIGELVGS", "growth estimate": "< -0.25"}
{"substance": "RTVLIHGRCSPIAEAPRRWL", "growth estimate": -0.242}
{"substance": "RTVSVRGGRVGC", "growth estimate": "< -0.25"}
{"substance": "RTWIDSFGEVSRSSRSIGQQ", "growth estimate": "< -0.25"}
{"substance": "RTWPARLLVRGSTTCVMSRT", "growth estimate": "< -0.25"}
{"substance": "RTWSARRSPTLSLSITEVLW", "growth estimate": "< -0.25"}
{"substance": "RTWSSRRTREFE", "growth estimate": "< -0.25"}
{"substance": "RTYLWRPILSSILMAERTLV", "growth estimate": "< -0.25"}
{"substance": "RVAETKLGRPAATLARVLIQ", "growth estimate": "< -0.25"}
{"substance": "RVCAV", "growth estimate": "< -0.25"}
{"substance": "RVCGFKDVF", "growth estimate": "< -0.25"}
{"substance": "RVCGLGNFNRGAHSAY", "growth estimate": "< -0.25"}
{"substance": "RVCMLATRGTWWLCSQGQGT", "growth estimate": "< -0.25"}
{"substance": "RVCRSTDNPSPYSPHWNQQS", "growth estimate": "< -0.25"}
{"substance": "RVD", "growth estimate": "< -0.25"}
{"substance": "RVDAVCLHRG", "growth estimate": "< -0.25"}
{"substance": "RVENHVSQQVLPRILSLSRG", "growth estimate": 0.202}
{"substance": "RVFCSRKAGGIIAARQVAPH", "growth estimate": "< -0.25"}
{"substance": "RVFGLRVKLT", "growth estimate": "< -0.25"}
{"substance": "RVFLTLEMSSDPMRLFSRRS", "growth estimate": -0.245}
{"substance": "RVFVGVGRAYTTAGC", "growth estimate": "< -0.25"}
{"substance": "RVGARYACSRSHQGRRFQKQ", "growth estimate": "< -0.25"}
{"substance": "RVGAS", "growth estimate": "< -0.25"}
{"substance": "RVGAVSPTLHTRTRFRDSAT", "growth estimate": "< -0.25"}
{"substance": "RVGCEWTLWG", "growth estimate": "< -0.25"}
{"substance": "RVGIHKQG", "growth estimate": "< -0.25"}
{"substance": "RVGL", "growth estimate": "< -0.25"}
{"substance": "RVGNGGIRDALIISWYMAYK", "growth estimate": "< -0.25"}
{"substance": "RVGPRCIGCSWHCLYRSSLY", "growth estimate": "< -0.25"}
{"substance": "RVGPSLQALSRVVRAFYG", "growth estimate": "< -0.25"}
{"substance": "RVGVGRVRIPMRFYASVALS", "growth estimate": "< -0.25"}
{"substance": "RVHARGACNLREKEEE", "growth estimate": "< -0.25"}
{"substance": "RVHERG", "growth estimate": "< -0.25"}
{"substance": "RVIESA", "growth estimate": "< -0.25"}
{"substance": "RVIGMSEVEVWPDSVLLFLA", "growth estimate": "< -0.25"}
{"substance": "RVILQYM", "growth estimate": "< -0.25"}
{"substance": "RVIR", "growth estimate": "< -0.25"}
{"substance": "RVIYEMLMRV", "growth estimate": "< -0.25"}
{"substance": "RVLGKIGTRTDALPREPRVL", "growth estimate": "< -0.25"}
{"substance": "RVLICATASVSCSAMINLLL", "growth estimate": "< -0.25"}
{"substance": "RVLPGILVRMNWRWARACTT", "growth estimate": "< -0.25"}
{"substance": "RVLPLFIEVSERWIIASAIQ", "growth estimate": "< -0.25"}
{"substance": "RVLVQRGVKLNFIVFGMHGT", "growth estimate": "< -0.25"}
{"substance": "RVMAIGWAGWATRVGGGSAR", "growth estimate": "< -0.25"}
{"substance": "RVMDGCVSVCAG", "growth estimate": "< -0.25"}
{"substance": "RVMGLRGSGHKNPGSIKVSL", "growth estimate": "< -0.25"}
{"substance": "RVNGLSAP", "growth estimate": "< -0.25"}
{"substance": "RVNGRNQGGRDVPSIGCHIG", "growth estimate": "< -0.25"}
{"substance": "RVNYVRELLVV", "growth estimate": "< -0.25"}
{"substance": "RVQ", "growth estimate": "< -0.25"}
{"substance": "RVQGGSFCSSV", "growth estimate": "< -0.25"}
{"substance": "RVQGRGTIILVCVVQWNLYC", "growth estimate": "< -0.25"}
{"substance": "RVQGY", "growth estimate": "< -0.25"}
{"substance": "RVQRTEPLLFYVFPMLPL", "growth estimate": "< -0.25"}
{"substance": "RVRAIIREIRCWDIESSRQF", "growth estimate": "< -0.25"}
